In article PMC5643561, “Zdhhc13-dependent Drp1 S-palmitoylation impacts brain bioenergetics, anxiety, coordination and motor skills” (Scientific Reports, 2017):
No constants are given. Whether binding was seen depends on the method and setting. Binding seen in cells or lysates may run through a third protein. Some results given as binding are weak or reduced against the parent protein; the word gives no strength.

Chains of the proteins cited; added tags and fusions are not shown.
UniProt Q8K1M6: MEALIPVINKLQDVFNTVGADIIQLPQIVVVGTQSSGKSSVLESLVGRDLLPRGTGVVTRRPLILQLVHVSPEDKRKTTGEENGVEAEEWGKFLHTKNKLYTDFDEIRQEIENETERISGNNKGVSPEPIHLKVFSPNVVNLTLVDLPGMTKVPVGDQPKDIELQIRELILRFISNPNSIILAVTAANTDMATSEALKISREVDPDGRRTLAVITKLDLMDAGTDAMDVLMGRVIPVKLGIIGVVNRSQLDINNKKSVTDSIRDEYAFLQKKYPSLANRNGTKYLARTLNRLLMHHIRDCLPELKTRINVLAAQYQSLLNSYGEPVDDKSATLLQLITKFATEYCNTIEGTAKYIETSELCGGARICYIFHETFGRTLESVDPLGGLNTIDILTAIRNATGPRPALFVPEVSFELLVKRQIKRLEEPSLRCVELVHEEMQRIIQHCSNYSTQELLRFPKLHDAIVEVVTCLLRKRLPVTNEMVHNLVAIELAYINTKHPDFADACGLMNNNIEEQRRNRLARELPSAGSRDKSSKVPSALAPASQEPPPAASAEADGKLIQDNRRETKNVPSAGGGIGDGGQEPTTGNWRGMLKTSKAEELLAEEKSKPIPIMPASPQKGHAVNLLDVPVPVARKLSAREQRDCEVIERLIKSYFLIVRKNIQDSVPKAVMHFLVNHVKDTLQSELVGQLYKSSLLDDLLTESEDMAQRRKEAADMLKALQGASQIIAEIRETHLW

Target: T1, Zdhhc13, endogenous, WT mouse brain (mouse (endogenous in brain)) (UniProt Q9CWU2)
T1 sequence: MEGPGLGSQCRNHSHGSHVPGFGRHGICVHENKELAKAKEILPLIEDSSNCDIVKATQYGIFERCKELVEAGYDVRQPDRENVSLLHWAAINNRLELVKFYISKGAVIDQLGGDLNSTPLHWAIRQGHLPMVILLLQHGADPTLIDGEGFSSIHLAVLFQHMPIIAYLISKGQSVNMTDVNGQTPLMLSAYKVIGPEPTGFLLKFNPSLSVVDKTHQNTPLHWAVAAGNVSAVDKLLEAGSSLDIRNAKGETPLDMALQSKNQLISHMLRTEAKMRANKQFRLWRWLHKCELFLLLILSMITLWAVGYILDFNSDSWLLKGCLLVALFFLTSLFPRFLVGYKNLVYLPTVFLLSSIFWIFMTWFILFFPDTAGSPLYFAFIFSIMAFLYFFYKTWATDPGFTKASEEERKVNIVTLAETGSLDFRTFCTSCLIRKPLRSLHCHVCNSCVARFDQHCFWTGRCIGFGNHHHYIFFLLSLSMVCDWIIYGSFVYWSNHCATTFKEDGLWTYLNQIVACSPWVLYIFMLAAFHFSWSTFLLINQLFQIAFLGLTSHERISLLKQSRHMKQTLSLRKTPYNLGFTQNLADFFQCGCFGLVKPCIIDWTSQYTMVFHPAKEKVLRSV
Assay: co-IP; 1 mg whole brain lysate of WT and HOM mice; anti-Zdhhc13 antibody (#4733) or anti-Drp1 antibody overnight at 4 °C; Dynabeads; PBS washes; blot with anti-Drp1

binding: binds
Substance: Drp1, endogenous, mouse brain (from UniProt Q8K1M6 1-736)
